Measurements reported in PubChem BioAssay AID540276 (National Center for Advancing Translational Sciences (NCATS), 2011).
The whole screen tested about 300,000 compounds, of which about 5,400 (1.8%) were called active. Inconclusive means that the source gave no clear call. Such entries were picked first, then a sample of the others. Calls come from the whole dose curve; tested in HEK293 cells. A potency beside an inconclusive call is a rough fit, not a confirmed value.

Test: qHTS for inhibitors of binding or entry into cells for Marburg Virus
Conditions: Marburg virus pseudotyped entry inhibition, cell reporter; series mostly up to 37.8 µM
Potency is the fitted concentration of half-maximal effect.

SMILES	Potency
COc1ccc(NC(=O)CSc2nncn2C)cc1	inconclusive: 31.6 µM [activator, single point]
CCN1C(=NCC(C)C)NC(c2cccc(F)c2)C(C(=O)OC)=C1C (stereo unspecified)	inactive
Cc1ccc(C(=O)N/N=C/c2ccc(OC(=O)c3ccccc3Cl)cc2)cn1	inactive
COc1ccccc1OCC(=O)Nc1cc(-c2ccc(C)cc2)no1	inconclusive: 0.891 µM [inhibitor, full curve, poor fit]
O=C(c1ccco1)N1CCN(C(=O)c2cnn(-c3ccc(Cl)cc3)c2C2CCNCC2)CC1	inconclusive: 6.31 µM [activator, single point]
Nc1nonc1C(=O)NCCNCc1cc(Br)ccc1OCc1ccccc1F	inconclusive: 32.6 µM [inhibitor, single point]
COc1cnc(-c2ccccn2)nc1Oc1ccc(Cl)cc1	inactive
CC1CN(C(=O)c2cc(S(=O)(=O)N(C)c3ccc(F)cc3)ccc2Cl)CC(C)O1 (stereo unspecified)	inconclusive: 4.47 µM [inhibitor, full curve, poor fit]
Cc1ccc(S(N)(=O)=O)cc1NC(=O)/C=C/c1ccc2c(c1)OCO2	inactive
O=[N+]([O-])c1cccc(S(=O)(=O)NCCCn2ccnc2)c1	inconclusive: 0.708 µM [inhibitor, single point]
O=C(/C(=C/O)N=Nc1ccccc1Cl)c1ccccc1	inconclusive: 22.4 µM [inhibitor, single point]
CCN1C(N(C)CCc2c[nH]c3ccccc23)=NC(c2cccc(C(F)(F)F)c2)C(C(=O)OC)=C1C (stereo unspecified)	inconclusive: 6.68 µM [inhibitor, single point]
CCOC(=O)N1CCC(N2Cc3cccc(C(=O)Nc4cc(F)ccc4F)c3C2=O)CC1	inactive
CCSc1nnc(NC(=O)[C@@H](NC(=O)c2ccccc2)C(C)C)s1	inactive
O=C(CCC1CCCCC1)Nc1cc(Cl)ccc1N1CCOCC1	inconclusive: 35.5 µM [inhibitor, single point]
CCCCC(CC)CNC(=O)CCS(=O)(=O)c1cccc2nsnc12 (stereo unspecified)	inactive
N#Cc1c(-c2ccccc2)cc(-c2ccccc2)nc1SCC(=O)Nc1ccc(Cl)cc1	inactive
Cc1ccc(-c2nc(NCCN(C)C)c3ccccc3n2)cc1	inconclusive: 10 µM [inhibitor, partial curve, poor fit]
Cc1cc(C(C)(C)C)cc(C)c1CCNC(=O)c1ccc[n+]([O-])c1	active: 0.631 µM
Cc1cccc(Oc2nc3c(c(=O)n(C)c(=O)n3C)n2C)c1C	inactive
Cc1ccc(N/N=C/c2c(O)n(-c3ccccc3)c(=O)[nH]c2=O)cc1	inconclusive: 6.31 µM [inhibitor, full curve]

Nothing new here: two of the compounds above.
SMILES	Potency
O=C(/C(=C/O)N=Nc1ccccc1Cl)c1ccccc1	inconclusive: 22.4 µM [inhibitor, single point]
CCN1C(N(C)CCc2c[nH]c3ccccc23)=NC(c2cccc(C(F)(F)F)c2)C(C(=O)OC)=C1C (stereo unspecified)	inconclusive: 6.68 µM [inhibitor, single point]
